Drawing on publication PMC8315051, this text covers binding for 3 substances.

By UniProt entry, the sequences of proteins in these tests, tags left out.
UniProt O94953: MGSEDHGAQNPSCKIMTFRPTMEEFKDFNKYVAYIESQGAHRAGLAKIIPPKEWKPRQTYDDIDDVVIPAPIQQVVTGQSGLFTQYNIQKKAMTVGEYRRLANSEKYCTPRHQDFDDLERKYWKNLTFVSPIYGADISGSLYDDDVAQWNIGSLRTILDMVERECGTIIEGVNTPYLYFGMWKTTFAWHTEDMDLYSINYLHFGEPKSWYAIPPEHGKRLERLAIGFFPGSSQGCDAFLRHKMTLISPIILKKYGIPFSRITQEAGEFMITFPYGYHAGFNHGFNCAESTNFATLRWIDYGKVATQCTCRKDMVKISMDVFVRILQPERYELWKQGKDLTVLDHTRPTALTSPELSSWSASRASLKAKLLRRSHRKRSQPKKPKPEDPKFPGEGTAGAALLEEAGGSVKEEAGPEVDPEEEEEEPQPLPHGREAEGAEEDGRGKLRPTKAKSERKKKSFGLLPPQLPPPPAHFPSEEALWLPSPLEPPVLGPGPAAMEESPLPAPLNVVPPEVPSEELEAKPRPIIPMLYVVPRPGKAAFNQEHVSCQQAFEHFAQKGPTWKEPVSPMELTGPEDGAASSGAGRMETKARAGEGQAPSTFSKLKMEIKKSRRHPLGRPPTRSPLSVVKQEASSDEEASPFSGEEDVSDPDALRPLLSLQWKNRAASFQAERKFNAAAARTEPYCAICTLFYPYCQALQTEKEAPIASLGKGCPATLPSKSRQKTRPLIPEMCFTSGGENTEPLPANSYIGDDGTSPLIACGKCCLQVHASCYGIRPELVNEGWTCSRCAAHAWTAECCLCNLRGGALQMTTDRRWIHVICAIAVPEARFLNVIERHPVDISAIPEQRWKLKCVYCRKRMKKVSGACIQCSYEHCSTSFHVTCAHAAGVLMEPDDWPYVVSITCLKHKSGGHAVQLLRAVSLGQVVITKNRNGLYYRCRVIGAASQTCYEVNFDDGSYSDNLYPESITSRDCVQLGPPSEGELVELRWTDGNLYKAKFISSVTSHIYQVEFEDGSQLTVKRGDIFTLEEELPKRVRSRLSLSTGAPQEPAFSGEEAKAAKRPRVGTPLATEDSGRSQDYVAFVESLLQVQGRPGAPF
UniProt P01106: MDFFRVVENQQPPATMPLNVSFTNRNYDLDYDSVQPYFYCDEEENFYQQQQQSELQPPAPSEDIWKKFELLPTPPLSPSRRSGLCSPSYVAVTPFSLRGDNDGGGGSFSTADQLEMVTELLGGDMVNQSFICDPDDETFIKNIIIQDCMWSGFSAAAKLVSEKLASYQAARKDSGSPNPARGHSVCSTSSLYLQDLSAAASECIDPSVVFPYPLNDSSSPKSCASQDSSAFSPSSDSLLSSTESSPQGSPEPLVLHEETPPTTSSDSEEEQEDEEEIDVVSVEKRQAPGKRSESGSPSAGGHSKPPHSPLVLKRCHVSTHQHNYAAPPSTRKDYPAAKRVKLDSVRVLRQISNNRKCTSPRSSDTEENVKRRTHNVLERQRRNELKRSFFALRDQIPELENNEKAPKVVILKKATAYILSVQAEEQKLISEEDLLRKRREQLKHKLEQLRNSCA

The target of test [1] is HA-tagged full-length KDM4B (KDM4B-FL) (UniProt O94953). In words: co-IP; lysates of HEK293 cells (text: 293T) co-transfected with HA-KDM4B and Flag-c-Myc or a truncated Flag-c-Myc; IP with anti-HA antibody on protein A/G magnetic beads, 4 °C overnight, lysis buffer 50 mM Tris-HCl pH 7.4, 150 mM NaCl, 0.5% NP40; immunoblot with anti-Flag. For orientation: A western blot detects proteins with antibodies after separation by electrophoresis.

The target of test [2] is Flag-tagged full-length c-Myc (c-Myc-FL) (human) (UniProt P01106). In words: co-IP; lysates of HEK293 cells (text: 293T) co-transfected with Flag-c-Myc and HA-KDM4B or a truncated HA-KDM4B; IP with anti-Flag antibody on protein A/G magnetic beads, 4 °C overnight, lysis buffer 50 mM Tris-HCl pH 7.4, 150 mM NaCl, 0.5% NP40; immunoblot with anti-HA.
In test [3] the target is c-Myc, endogenous in C4-2B cells (human (endogenous in C4-2B)) (UniProt P01106). In words: co-IP; endogenous proteins in C4-2B cell lysates; IP with anti-KDM4B or anti-c-Myc antibody, rabbit IgG as negative control; immunoblot.

No constants are given. Whether binding was seen depends on the method and setting. In cells and extracts the contact can be indirect. Some entries that bind do so weakly or less than the wild type.

“Flag-tagged full-length c-Myc (c-Myc-FL) (from UniProt P01106 1-454)”: in test [1], the binding entry is listed as “binds”.

For “HA-tagged full-length KDM4B (KDM4B-FL) (from UniProt O94953 1-1096)”, the binding entry in test [2] is recorded as “binds”.

Regarding “KDM4B, endogenous in C4-2B cells (from UniProt O94953 1-1096)”, the binding entry in test [3] is “binds”.
